Source: PMC3781154
Results are given in words; binding and its absence hold for the method and conditions named. In cells and extracts the contact can be indirect. Some results given as binding are weak or reduced against the parent protein; the word gives no strength. Tags and fused reporters may be left off the sequences shown.

Target: T1, FLAG-ZNF395 (human) (UniProt Q9H8N7)
T1 sequence: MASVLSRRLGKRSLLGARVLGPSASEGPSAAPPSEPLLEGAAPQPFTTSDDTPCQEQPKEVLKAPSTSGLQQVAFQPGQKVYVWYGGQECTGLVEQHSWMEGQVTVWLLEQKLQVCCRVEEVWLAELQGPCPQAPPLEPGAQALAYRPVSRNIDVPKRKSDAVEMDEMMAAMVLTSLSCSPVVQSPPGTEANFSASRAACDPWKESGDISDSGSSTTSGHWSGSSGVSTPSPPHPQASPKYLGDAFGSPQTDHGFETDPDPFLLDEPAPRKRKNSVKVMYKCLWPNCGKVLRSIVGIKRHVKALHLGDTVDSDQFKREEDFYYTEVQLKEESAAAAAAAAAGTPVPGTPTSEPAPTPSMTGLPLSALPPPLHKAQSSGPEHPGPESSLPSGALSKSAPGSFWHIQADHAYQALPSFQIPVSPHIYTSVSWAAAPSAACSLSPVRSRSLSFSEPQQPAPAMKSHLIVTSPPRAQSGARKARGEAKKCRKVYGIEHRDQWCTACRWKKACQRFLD
Experiment: co-IP; C33A cells co-transfected with vectors for FLAG-ZNF395 and HA-IKKα or HA-IKKβ; total cell extracts; precipitation with M2-FLAG agarose, immunoblot with anti-HA and anti-FLAG antibody

B1: HA-IKKβ (enzyme, UniProt O14920 1-756)
chain: MSWSPSLTTQTCGAWEMKERLGTGGFGNVIRWHNQETGEQIAIKQCRQELSPRNRERWCLEIQIMRRLTHPNVVAARDVPEGMQNLAPNDLPLLAMEYCQGGDLRKYLNQFENCCGLREGAILTLLSDIASALRYLHENRIIHRDLKPENIVLQQGEQRLIHKIIDLGYAKELDQGSLCTSFVGTLQYLAPELLEQQKYTVTVDYWSFGTLAFECITGFRPFLPNWQPVQWHSKVRQKSEVDIVVSEDLNGTVKFSSSLPYPNNLNSVLAERLEKWLQLMLMWHPRQRGTDPTYGPNGCFKALDDILNLKLVHILNMVTGTIHTYPVTEDESLQSLKARIQQDTGIPEEDQELLQEAGLALIPDKPATQCISDGKLNEGHTLDMDLVFLFDNSKITYETQISPRPQPESVSCILQEPKRNLAFFQLRKVWGQVWHSIQTLKEDCNRLQQGQRAAMMNLLRNNSCLSKMKNSMASMSQQLKAKLDFFKTSIQIDLEKYSEQTEFGITSDKLLLAWREMEQAVELCGRENEVKLLVERMMALQTDIVDLQRSPMGRKQGGTLDDLEEQARELYRRLREKPRDQRTEGDSQEMVRLLLQAIQSFEKKVRVIYTQLSKTVVCKQKALELLPKVEEVVSLMNEDEKTVVRLQEKRQKELWNLLKIACSKVRGPVSGSPDSMNASRLSQPGQLMSQPSTASNSLPEPAKKSEELVAEAHNLCTLLENAIQDTVREQDQSFTALDWSWLQTEEEEHSCLEQAS
- binding: binds
